Reference: US11339175B2, “Thiol-based fluorescent probe for reactive species” (The Board of Trustees of the University of Illinois, priority 2018, dated 2022)

Tested on: MDA-MB-231 cells
Assay: Subcellular localization, co-incubation with LysoTracker Red
Format: cell-based, human

With `CC(C)(S)C(=O)Oc1c(Cl)cc2c(c1Cl)Oc1cc(O)ccc1C21OCc2ccccc21` (centres unmarked) [NitroxylFluor] the subcellular localization (MDA-MB-231 cells) was “lysosomal” and the “Pearson's Coefficient of overlap with LysoTracker Red” value (after Angeli's salt treatment (250 μM), roughly 5 minutes at 25° C., n=5) was 0.932±0.01.
